The record followed here is publication PMC11674849.

These are yes or no findings as the source states them, for the method shown. In cells and extracts the contact can be indirect. Some binding calls cover weakened binding; strength is not graded here.

This experiment concerns the target Wilms Tumor 1 (WT1) (human (endogenous in conditionally immortalized human podocytes)) (UniProt P19544). As to the kind of experiment: co-IP; lysates of V/DPDs, G0/DPDs, G1/DPDs and G2/DPDs (differentiated human podocytes stably expressing vector, APOL1 G0, G1 or G2) immunoprecipitated with 5 ug WT1 antibody, protein A+G sepharose beads, RIPA buffer, 4 °C, 4 h; washed 3x with RIPA; immunoblot. In general terms: Immunoblotting shows a protein as a band on a membrane.

In the case of “Histone Deacetylase 1 (HDAC1) (from UniProt Q13547 1-482) (enzyme)”, the binding result was “binds”.
